Reference: paper PMC2575215
Construct, isoform or probe ends are uncertain for at least one entry. Results from cells or extracts need not show a direct contact. No signal at the amounts used counts as a negative.

By UniProt entry, the sequences of proteins in these tests, tags left out. Where a name states a change or a piece, a line headed by the entry shows the natural chain unless it says otherwise.
UniProt P12979: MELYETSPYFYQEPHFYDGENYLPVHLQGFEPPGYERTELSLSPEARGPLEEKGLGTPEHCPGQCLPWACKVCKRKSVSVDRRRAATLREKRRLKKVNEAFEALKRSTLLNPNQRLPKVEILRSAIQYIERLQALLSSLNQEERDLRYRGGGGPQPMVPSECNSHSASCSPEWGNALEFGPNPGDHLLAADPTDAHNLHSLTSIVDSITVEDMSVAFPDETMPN

Experiments:
myogenin = myogenin (UniProt P12979); assay: EMSA; conditions: myotube extracts, shifted complex not detectable with mutant probe; 10 mM Tris pH 7.5, 40 mM KCl, 0.5 mM DTT, 10% glycerol, 1 ug poly(dIdC), 10-14 ug nuclear extract, 25 min room temperature; 5% gel at 10 C; protein in an extract; label: 32P (dCTP fill-in)
MEF-2 = assay: EMSA; conditions: myotube extracts, no specific complex with mutant probe; 10 mM Tris pH 7.5, 40 mM KCl, 0.5 mM DTT, 10% glycerol, 1 ug poly(dIdC), 10-14 ug nuclear extract, 25 min room temperature; 5% gel at 10 C; protein in an extract; label: 32P (dCTP fill-in)

Sequence	binding result (myogenin)	binding result (MEF-2)
GGCATTTCTGAGTGGCTCTGTGGCGACA (double strand) [ART1 E box mut]	no binding	–
GGAGGAGACAGAGTGAACACGACGAGTGTC (double strand) [ART1 A/T-rich mut]	–	no binding
